Measurements reported in PubChem BioAssay AID652259 (Drosophila RNAi Screening Center, 2013)

Assay: 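Identify new Wingless signalling regulators in fly cells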 (primary screen)
Cells: Drosophila clone 8 imaginal disc epithelial cells
Knock-down reagent: long dsRNA against Drosophila genes
Treatment: pathway stimulated by co-transfected Wingless expression plasmid
Read-out: 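Firefly luciferase from a tcf-site Wingless reporter, measured alongside co-transfected Renilla luciferase that tracks transfection; pathway stimulated by a Wingless plasmid; the firefly-to-Renilla ratio is not deposited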
Scale: firefly reporter light: higher = more Wg reporter light, before normalisation; Renilla control light: higher = more transfected or surviving cells
Active means: 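Strong candidates differ from their plate mean by at least two out of four per-plate statistical tests; weak candidates meet just one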
Meaning of the calls: active = candidate regulator (raises or lowers reporter); inactive = not a candidate
The deposit covers about 22,000 reagents; shown is an unselected part of those with a known target gene and a result. In the full data, 233 (1.1%) were called active. 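Light values are raw, unnormalised plate reads; the ratio scores behind the reporter calls were not deposited.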 A number with no mark means an inactive call. Reagents against one gene are numbered here. Names joined by + are all predicted targets of the reagent. No sequences are given here. The record does not give: the amount of reagent, the time to read-out, the dose of the treatment.

| Gene | reagent no. | reporter change call, replicate 1 | firefly reporter light, replicate 1 | firefly reporter light, replicate 2 | Renilla control light, replicate 1 | Renilla control light, replicate 2 |
| --- | --- | --- | --- | --- | --- | --- |
| CG17801 | 1 | – | 19985 | – | 4746 | – |
| CG5334 | 1 | – | 26768 | – | 10473 | – |
| CG13407 | 1 | – | 35280 | – | 5096 | – |
| CG33108 | 1 | – | 7.40e5 | 6.49e5 | 2.88e5 | 2.91e5 |
| Myc | 1 | – | 12729 | – | 3675 | – |
| COX2 (retired record) | 1 | – | 16109 | – | 9748 | – |
| CG8191 + CG12379 | 1 | – | 24672 | – | 13797 | – |
| CG4751 | 1 | – | 6944 | – | 2200 | – |
| CG30060 | 1 | – | 13602 | – | 11202 | – |
| CG6180 | 1 | – | 9988 | – | 3138 | – |
| ppk27 | 1 | – | 7880 | – | 3477 | – |
| ppk27 | 2 | – | 6.73e5 | 6.78e5 | 2.74e5 | 2.78e5 |
| Orc4 | 1 | – | 12451 | – | 2522 | – |
| CG16758 | 1 | – | 1452 | – | 829 | – |
| CG16758 | 2 | – | 17523 | – | 4144 | – |
| CG17078 | 1 | – | 2341 | 5608 | 893 | 2288 |
| Polr2C | 1 | – | 9786 | – | 1797 | – |
| COX7B | 1 | – | 5670 | – | 2314 | – |
| dmrt11E | 1 | – | 24749 | 7.35e5 | 12224 | 2.47e5 |
| Cht11 | 1 | – | 21477 | – | 10705 | – |
| CG13581 | 1 | – | 1799 | 8416 | 801 | 2699 |
| CG11882 | 1 | – | 8642 | – | 2875 | – |
| GstD7 | 1 | – | 20649 | 8.68e5 | 6267 | 3.82e5 |
| Bap111 | 1 | – | 2087 | 6896 | 793 | 2292 |
| vrs | 1 | – | 19128 | – | 4086 | – |
| CG32313 | 1 | – | 3.81e5 | 4.78e5 | 1.56e5 | 1.57e5 |
| Duba | 1 | – | 5203 | – | 2085 | – |
| Cow | 1 | – | 3012 | – | 315 | – |
| Cow | 2 | – | 13765 | – | 13523 | – |
| GATAe | 1 | Wg reporter activity raised | 4628 | 12290 | 550 | 1819 |
| mol | 1 | – | 4341 | 16361 | 1590 | 7496 |
| mol | 2 | – | 12850 | – | 1348 | – |
| mol | 3 | – | 3571 | 10512 | 1576 | 4953 |
| CG7101 | 1 | – | 4736 | 11833 | 2006 | 4253 |
| CG7101 | 2 | – | 6.46e5 | 6.24e5 | 2.46e5 | 3.32e5 |
| CG14384 | 1 | – | 14800 | – | 2113 | – |
| CG3626 | 1 | – | 21381 | – | 9776 | – |
| CG10914 | 1 | – | 6954 | – | 2976 | – |
| CG2962 | 1 | – | 3250 | 7117 | 1659 | 2540 |
| yellow-e2 | 1 | – | 10432 | – | 1729 | – |
| CG13193 | 1 | – | 6629 | – | 2618 | – |
| scw | 1 | – | 14997 | – | 7499 | – |
| scw | 2 | – | 20960 | – | 12764 | – |
| ctrip | 1 | – | 12375 | – | 3568 | – |
| ctrip | 2 | – | 4300 | – | 1049 | – |
| ctrip | 3 | – | 3.74e5 | 3.86e5 | 1.40e5 | 1.38e5 |
| CG15111 | 1 | – | 5.82e5 | 6.70e5 | 2.82e5 | 2.34e5 |
| CG8728 | 1 | – | 10507 | – | 3288 | – |
| Ccp84Ag | 1 | – | 20801 | – | 3995 | – |
| Ccp84Ag | 2 | – | 5.78e5 | 5.68e5 | 1.84e5 | 2.08e5 |
| Ssb-c31a | 1 | – | 3340 | 10025 | 1781 | 5675 |
| TM9SF4 | 1 | – | 10609 | – | 3510 | – |
| cyr | 1 | – | 19760 | – | 10264 | – |
| cyr | 2 | – | 20029 | – | 9032 | – |
| cyr | 3 | – | 19961 | – | 7921 | – |
| CG13494 | 1 | – | 3402 | 11696 | 1209 | 3628 |
| cg | 1 | – | 6973 | – | 592 | – |
| eIF3m | 1 | – | 9785 | – | 2064 | – |
| CG32191 | 1 | – | 5970 | – | 2720 | – |
| xmas-1 (retired record) | 1 | – | 14949 | – | 9636 | – |
| CG11825 | 1 | – | 3816 | 7255 | 848 | 1544 |
| Atf3 | 1 | – | 21651 | – | 6058 | – |
| CG31404 | 1 | – | 15331 | – | 2668 | – |
| msk | 1 | – | 12023 | – | 2483 | – |
| stil | 1 | – | 6049 | – | 2268 | – |
| Mdh2 | 1 | – | 14371 | – | 2117 | – |
| Eato | 1 | – | 18658 | – | 7616 | – |
| Eato | 2 | – | 2169 | 5429 | 956 | 2426 |
| CG32599 | 1 | – | 1952 | 10416 | 585 | 2009 |
| Gem4b + Gem4c | 1 | – | 2051 | – | 1008 | – |
| fd59A | 1 | – | 10022 | – | 2488 | – |
| FoxK | 1 | – | 10648 | – | 2037 | – |
| CG12081 | 1 | – | 1353 | 5105 | 736 | 1808 |
| inv | 1 | – | 9354 | – | 3488 | – |
| CG1722 | 1 | – | 16296 | – | 8394 | – |
| RunxB | 1 | – | 4653 | – | 1592 | – |
| RunxB | 2 | – | 20493 | – | 6681 | – |
| RunxB | 3 | – | 10368 | – | 326 | – |
| E(spl)m5-HLH | 1 | – | 19809 | – | 18368 | – |
| MED24 | 1 | Wg reporter activity lowered | 907 | 4960 | 1557 | 3546 |
| Cf2 | 1 | – | 3165 | 6448 | 483 | 674 |
| CG10576 | 1 | – | 3920 | – | 1282 | – |
| CG14260 | 1 | – | 3837 | – | 2688 | – |
| jef | 1 | – | 8920 | – | 3905 | – |
| Tina-1 | 1 | – | 19128 | – | 5271 | – |
| CG8870 | 1 | – | 10243 | – | 1602 | – |
| Ir51a | 1 | – | 6101 | – | 2954 | – |
| Atg1 | 1 | – | 3410 | – | 1067 | – |
| Atg1 | 2 | – | 8760 | – | 3276 | – |
| CG4968 | 1 | – | 14160 | – | 5563 | – |
| CG13587 | 1 | – | 2658 | 6861 | 901 | 2596 |
| FASN2 | 1 | – | 17363 | – | 9539 | – |
| FASN2 | 2 | – | 11959 | – | 4115 | – |

A run of entries taken from the entries so far:
| Gene | reagent no. | reporter change call, replicate 1 | firefly reporter light, replicate 1 | firefly reporter light, replicate 2 | Renilla control light, replicate 1 | Renilla control light, replicate 2 |
| --- | --- | --- | --- | --- | --- | --- |
| CG16758 | 2 | – | 17523 | – | 4144 | – |
| CG17078 | 1 | – | 2341 | 5608 | 893 | 2288 |
| Polr2C | 1 | – | 9786 | – | 1797 | – |
| COX7B | 1 | – | 5670 | – | 2314 | – |
| dmrt11E | 1 | – | 24749 | 7.35e5 | 12224 | 2.47e5 |
| Cht11 | 1 | – | 21477 | – | 10705 | – |
